Test results published in article PMC3105080.
These are yes or no findings as the source states them, for the method shown. In cells and extracts the contact can be indirect. Some results given as binding are weak or reduced against the parent protein; the word gives no strength. Where a sequence is shown, tags or fusion partners need not be part of it.

Sequences of proteins named here, by UniProt entry; tags and fusion partners are left off. Residues count along the entry.
UniProt Q4ZJM7, residues 24-482: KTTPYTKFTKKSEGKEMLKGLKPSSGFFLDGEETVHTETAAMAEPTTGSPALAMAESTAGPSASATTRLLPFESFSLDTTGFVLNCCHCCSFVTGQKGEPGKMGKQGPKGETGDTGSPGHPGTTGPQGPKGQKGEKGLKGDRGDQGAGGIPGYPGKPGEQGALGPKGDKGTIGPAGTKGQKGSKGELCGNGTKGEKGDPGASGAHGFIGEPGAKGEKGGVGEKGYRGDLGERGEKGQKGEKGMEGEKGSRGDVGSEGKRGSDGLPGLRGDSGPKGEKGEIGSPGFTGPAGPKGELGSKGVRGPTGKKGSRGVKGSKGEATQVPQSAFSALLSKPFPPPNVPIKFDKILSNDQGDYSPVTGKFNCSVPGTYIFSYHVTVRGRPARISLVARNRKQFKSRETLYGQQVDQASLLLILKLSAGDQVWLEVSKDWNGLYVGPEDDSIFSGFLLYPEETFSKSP

Biological target: T1, otoconin-90 (Oc90), full-length, FLAG-tagged (mouse) (UniProt Q9Z0L3)
T1 sequence: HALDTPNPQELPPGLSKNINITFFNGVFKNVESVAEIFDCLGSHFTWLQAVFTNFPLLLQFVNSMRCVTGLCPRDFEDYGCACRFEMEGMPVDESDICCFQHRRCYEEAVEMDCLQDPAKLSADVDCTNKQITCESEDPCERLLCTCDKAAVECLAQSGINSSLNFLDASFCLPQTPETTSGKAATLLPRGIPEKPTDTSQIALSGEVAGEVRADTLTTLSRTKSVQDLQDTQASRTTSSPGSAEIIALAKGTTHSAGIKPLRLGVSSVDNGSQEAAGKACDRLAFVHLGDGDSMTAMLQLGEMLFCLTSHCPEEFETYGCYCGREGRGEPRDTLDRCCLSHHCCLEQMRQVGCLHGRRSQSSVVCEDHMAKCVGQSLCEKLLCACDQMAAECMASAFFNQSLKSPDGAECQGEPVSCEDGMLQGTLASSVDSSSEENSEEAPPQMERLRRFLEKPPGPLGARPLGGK
Assay: co-IP; HEK293 cells co-transfected with Oc90-FLAG and otolin or its domains; lysed in hypotonic buffer (10 mM Tris-HCl pH 7.5, 10 mM NaCl, 2 mM EDTA, 0.5% Triton-X-100), then 150 mM NaCl; anti-FLAG M2 beads 6 h at 4°C, washed 3 times with TBS; Western blot with otolin and Oc90 antibodies

binding: binds
Substance: otolin-1 (otolin), full-length (from UniProt Q4ZJM7 24-482)
